In paper doi:10.1101/2021.09.09.459689 one finds binding data, which are given here for one molecule.

Results are given in words; binding and its absence hold for the method and conditions named.

The assay has as its target NANOG, Q9H9S0. As to the kind of experiment: SPR. The settings on record: remark: other sources report otherwise.

B1: focal adhesion kinase (FAK), Q05397 1-1052 (enzyme)
chain: MAAAYLDPNLNHTPNSSTKTHLGTGMERSPGAMERVLKVFHYFESNSEPTTWASIIRHGDATDVRGIIQKIVDSHKVKHVACYGFRLSHLRSEEVHWLHVDMGVSSVREKYELAHPPEEWKYELRIRYLPKGFLNQFTEDKPTLNFFYQQVKSDYMLEIADQVDQEIALKLGCLEIRRSYWEMRGNALEKKSNYEVLEKDVGLKRFFPKSLLDSVKAKTLRKLIQQTFRQFANLNREESILKFFEILSPVYRFDKECFKCALGSSWIISVELAIGPEEGISYLTDKGCNPTHLADFTQVQTIQYSNSEDKDRKGMLQLKIAGAPEPLTVTAPSLTIAENMADLIDGYCRLVNGTSQSFIIRPQKEGERALPSIPKLANSEKQGMRTHAVSVSETDDYAEIIDEEDTYTMPSTRDYEIQRERIELGRCIGEGQFGDVHQGIYMSPENPALAVAIKTCKNCTSDSVREKFLQEALTMRQFDHPHIVKLIGVITENPVWIIMELCTLGELRSFLQVRKYSLDLASLILYAYQLSTALAYLESKRFVHRDIAARNVLVSSNDCVKLGDFGLSRYMEDSTYYKASKGKLPIKWMAPESINFRRFTSASDVWMFGVCMWEILMHGVKPFQGVKNNDVIGRIENGERLPMPPNCPPTLYSLMTKCWAYDPSRRPRFTELKAQLSTILEEEKAQQEERMRMESRRQATVSWDSGGSDEAPPKPSRPGYPSPRSSEGFYPSPQHMVQTNHYQVSGYPGSHGITAMAGSIYPGQASLLDQTDSWNHRPQEIAMWQPNVEDSTVLDLRGIGQVLPTHLMEERLIRQQQEMEEDQRWLEKEERFLKPDVRLSRGSIDREDGSLQGPIGNQHIYQPVGKPDPAAPPKKPPRPGAPGHLGSLASLSSPADSYNEGVKLQPQEISPPPTANLDRSNDKVYENVTGLVKAVIEMSSKIQPAPPEEYVPMVKEVGLALRTLLATVDETIPLLPASTHREIEMAQKLLNSDLGELINKMKLAQQYVMTSLQQEYKKQMLTAAHALAVDAKNLLDVIDQARLKMLGQTRPH
With B1, the binding result is given as “no binding”.
